Data as given in PubChem BioAssay AID1259291 (Sanger Institute, 2017).
This is a random part of 794 reagents tested. In the full data, 15 (1.9%) are marked active. 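Calls rest on knock-down alone; drug synergy scores do not affect them; drugs added a day post-transfection, DMSO vehicle as comparison.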 Not all columns of the deposit are shown. The record does not give: the amount of reagent, the time to read-out.

Screen: 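Search for gene knock-downs that act synergistically alongside anchor drugs to kill cells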 (primary screen)
Cells: HT29 human colorectal cancer cells
Knock-down reagent: siRNA pool against human genes
Conditions: anchor drugs added a day after transfection: BYL719 at 1 µM, cetuximab at 5 µg/ml or trametinib at 10 nM, or DMSO vehicle alone
Measurement: 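Replicate-averaged viability relative to non-targeting pool, robust z-score based on control wells, plus per-drug synergy score for 1 µM BYL719, 5 µg/ml cetuximab and 10 nM trametinib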
Reading the numbers: robust z-score, knock-down alone: higher = more viable cells
Active means: 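Essential when the robust z-score for knock-down without any drug is below -3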
Calls: active = essential (knock-down alone); inactive = no change alone

| gene | robust z-score, knock-down alone | activity call |
| --- | --- | --- |
| EPHA7 | -2.07 | inactive |
| KHK | 0.552 | inactive |
| PHKA2 | 0.442 | inactive |
| NUCKS1 | 0.552 | inactive |
| BPTF | 0.552 | inactive |
| MECOM | -0.0913 | inactive |
| MYLK2 | -0.664 | inactive |
| ACVR2A | -1.47 | inactive |
| RYK | 0.552 | inactive |
| PIP4K2B | 0.525 | inactive |
| RAF1 | 0.552 | inactive |
| STRADB | -0.896 | inactive |
| HASPIN | -2.21 | inactive |
| PRKCZ | 0.552 | inactive |
| PAPSS1 | 0.552 | inactive |
| PRKG1 | 0.364 | inactive |
| PRKAA1 | 0.552 | inactive |
| CHKA | 0.552 | inactive |
| BRAF | -1.07 | inactive |
| IKBKE | -0.552 | inactive |
| NRBP1 | -1.26 | inactive |
| KSR2 | 0.552 | inactive |
| WT1 | 0.552 | inactive |
| CDC73 | -1.36 | inactive |
| ITSN1 | 0.552 | inactive |
| MAP3K19 | 0.552 | inactive |
| PIM2 | -0.17 | inactive |
| ALPK1 | 0.552 | inactive |
| AAK1 | -0.949 | inactive |
| DMPK | 0.552 | inactive |
| LYN | -0.237 | inactive |
| STK38 | 0.363 | inactive |
| PDGFRA | 0.552 | inactive |
| STAG2 | 0.143 | inactive |
| MAPK13 | -2.33 | inactive |
| CNOT1 | -1.66 | inactive |
| IRAK4 | 0.552 | inactive |
| SYNCRIP | -1.07 | inactive |
| ITPKC | 0.552 | inactive |
| AKT3 | 0.552 | inactive |
| PI4KA | -2.32 | inactive |
| RPS6KB2 | 0.552 | inactive |
| PRAG1 | -1.14 | inactive |
| WEE1 | -5.36 | active |
| CDK16 | 0.552 | inactive |
| ANKK1 | 0.552 | inactive |
| MKNK2 | -1.4 | inactive |
| MAP3K6 | 0.189 | inactive |
| CREBBP | -1.05 | inactive |
| PBK | 0.552 | inactive |
| EFNA3 | 0.552 | inactive |
| PI4K2B | 0.552 | inactive |
| MAST1 | -0.489 | inactive |
| PGK1 | 0.552 | inactive |
| RELA | 0.552 | inactive |
| EPHA5 | 0.209 | inactive |
| CDK11B | -0.579 | inactive |
| VRK2 | 0.552 | inactive |
| GALK1 | 0.552 | inactive |
| CDK5R2 | -0.646 | inactive |
| CALM3 | -0.582 | inactive |
| ROS1 | -0.583 | inactive |
| NUP98 | -2.27 | inactive |

3 of these entries, set out differently.
{"gene":"CNOT1","robust z-score, knock-down alone":-1.66,"activity call":"inactive"}
{"gene":"IRAK4","robust z-score, knock-down alone":0.552,"activity call":"inactive"}
{"gene":"SYNCRIP","robust z-score, knock-down alone":-1.07,"activity call":"inactive"}
